Assay results taken from PubChem BioAssay AID248 (DTP/NCI, 2004).
The list does not hold the whole screen: it is rich in T/C values a quarter to a half above the control, in often repeated tests (any T/C) and in doses without a T/C. Other doses and runs of a compound stand elsewhere. T/C is the treated group as % of the vehicle group. Some entries give survivors of the animals treated and no T/C: the source files T/C as zero there, which appears to mark a toxic dose or a test without result, not a measured value. Some survivor counts are full or nearly so, which does not show that the dose was tolerated: survival well below the control is almost never listed, so the zero probably covers shortened survival too. Counts of survivors are from the toxicity check (mostly the fifth day) where no day follows; animals may have died later. Schedule codes are those of the source, taken here to give the interval after Q, in days (D) or hours (H), and the number of doses after X. For survival time, the PubChem record calls one and a half times the control and up active, and a quarter to a half above the control has no call in these data; cut-offs in other NCI protocols can differ. Some entries were tested several times; their values stand side by side, smallest first.

Tested on: L1210 leukemia ip in BDF1 mice, survival T/C
Test: NCI In Vivo Anticancer Drug Screen. Data for tumor model L1210 Leukemia (intraperitoneal) in B6D2F1 (BDF1) mice
Conditions: T/C endpoint: mean survival time, higher T/C = longer survival
[1] = dose: 200.0 mg/kg/injection, schedule: Q01DX009 (ip), vehicle: Klucel (hydroxypropylcellulose) (HPC)
[2] = dose: 200.0 mg/kg/injection, schedule: Q01DX001 (ip), vehicle: other
[3] = dose: 400.0 mg/kg/injection, schedule: Q01DX001 (ip), vehicle: other
[4] = dose: 400.0 mg/kg/injection, schedule: Q01DX009 (ip), vehicle: saline with Tween-80
[5] = dose: 25.0 mg/kg/injection, schedule: Q04DX003 (ip), vehicle: saline
[6] = dose: 400.0 mg/kg/injection, schedule: Q04DX003 (ip), vehicle: saline with Tween-80
[7] = dose: 400.0 mg/kg/injection, schedule: Q01DX001 (ip), vehicle: saline

## CCN(CC)CCn1ncc2c1C1(C)CCC2C1(C)C (centres undefined)
dose: 400.0 mg/kg/injection, schedule: Q04DX003 (ip), vehicle: saline
  survivor count: 0 of 6

## COC(=O)/C=C/N1C(=O)c2ccccc2C1=O
dose: 100.0 mg/kg/injection, schedule: Q01DX009 (ip), vehicle: Klucel (hydroxypropylcellulose) (HPC)
  survivor count: 6 of 6
[1]
  survivor count: 6 of 6
dose: 400.0 mg/kg/injection, schedule: Q01DX009 (ip), vehicle: Klucel (hydroxypropylcellulose) (HPC)
  survivor count: 6 of 6

## CCc1c(CBr)c(=O)[nH]c2ccccc12
[2]
  survivor count: 1 of 4
[3]
  survivor count: 1 of 4

## Cn1nc(NC(=O)C(F)(F)F)c2nccnc21
[4]
  survivor count: 5 of 6

## Brc1cccc[n+]1-c1ccc2cc(-[n+]3ccccc3Br)ccc2c1
dose: 18.75 mg/kg/injection, schedule: Q01DX001 (ip), vehicle: other
  survivor count: 1 of 6
dose: 37.5 mg/kg/injection, schedule: Q01DX001 (ip), vehicle: other
  survivor count: 0 of 6
dose: 75.0 mg/kg/injection, schedule: Q01DX001 (ip), vehicle: other
  survivor count: 0 of 6
dose: 150.0 mg/kg/injection, schedule: Q01DX001 (ip), vehicle: other
  survivor count: 0 of 6
dose: 300.0 mg/kg/injection, schedule: Q01DX001 (ip), vehicle: other
  survivor count: 1 of 6

## Nc1ccc(Oc2ccc(Cl)cc2)c(Cl)c1
[4]
  survivor count: 3 of 6

## CC12OC1(C)C1(C)C3(C)OC3(C)C21C (centres undefined)
dose: 400.0 mg/kg/injection, schedule: Q01DX001 (ip), vehicle: Klucel (hydroxypropylcellulose) (HPC)
  survivor count: 3 of 6

## CC(C)Cn1cnc2c(=S)nc(N)[nH]c21
dose: 14.0 mg/kg/injection, schedule: Q01DX015 (ip), vehicle: other
  T/C: 135 % of control
dose: 21.0 mg/kg/injection, schedule: Q01DX015 (ip), vehicle: other
  T/C: 136 % of control
dose: 29.0 mg/kg/injection, schedule: Q01DX015 (ip), vehicle: carboxymethylcellulose (CMC)
  T/C: 132 % of control
dose: 30.0 mg/kg/injection, schedule: Q01DX015 (ip), vehicle: carboxymethylcellulose (CMC)
  T/C: 132 % of control
dose: 33.0 mg/kg/injection, schedule: Q01DX001 (ip), vehicle: carboxymethylcellulose (CMC)
  T/C: 138 % of control
dose: 36.0 mg/kg/injection, schedule: Q01DX015 (ip), vehicle: other
  T/C: 129 % of control
dose: 50.0 mg/kg/injection, schedule: Q01DX001 (ip), vehicle: carboxymethylcellulose (CMC)
  T/C: 129 and 138 % of control
dose: 88.8 mg/kg/injection, schedule: Q01DX001 (ip), vehicle: carboxymethylcellulose (CMC)
  T/C: 134 % of control
dose: 100.0 mg/kg/injection, schedule: Q01DX001 (ip), vehicle: other
  T/C: 137 % of control
dose: 133.0 mg/kg/injection, schedule: Q01DX001 (ip), vehicle: carboxymethylcellulose (CMC)
  T/C: 137 % of control
[2]
  T/C: 128 % of control
dose: 300.0 mg/kg/injection, schedule: Q01DX001 (ip), vehicle: carboxymethylcellulose (CMC)
  T/C: 132 % of control
[3]
  T/C: 130 % of control

## CCCC[N+](C)(CCCC)CC(O)c1cc(-c2ccc(Cl)cc2)nc2c(Cl)cc(Cl)cc12 (centres undefined)
[5]
  survivor count: 6 of 6
dose: 50.0 mg/kg/injection, schedule: Q04DX003 (ip), vehicle: saline
  survivor count: 2 of 6
dose: 100.0 mg/kg/injection, schedule: Q04DX003 (ip), vehicle: acetone
  survivor count: 1 of 6
dose: 200.0 mg/kg/injection, schedule: Q04DX003 (ip), vehicle: acetone
  survivor count: 0 of 6
dose: 400.0 mg/kg/injection, schedule: Q04DX003 (ip), vehicle: acetone
  survivor count: 0 of 6

## COc1ccc(C(=O)N(N)C2CCCCC2)cc1
[6]
  survivor count: 3 of 6

## CCC(CC)(CCN)c1ccccc1
dose: 200.0 mg/kg/injection, schedule: Q01DX001 (ip), vehicle: carboxymethylcellulose (CMC)
  survivor count: 2 of 4
dose: 400.0 mg/kg/injection, schedule: Q01DX001 (ip), vehicle: carboxymethylcellulose (CMC)
  survivor count: 0 of 4

## COc1ccc(N(CCO)CCO)cc1
[7]
  survivor count: 2 of 4

## O=C(CCCCl)CC(O)(C(F)(F)F)C(F)(F)F
[4]
  survivor count: 3 of 6

## CCCCCCCCC(=O)NCc1ccc(O)c(OC)c1
dose: 12.5 mg/kg/injection, schedule: Q01DX009 (ip), vehicle: saline with Tween-80
  survivor count: 3 of 6
dose: 25.0 mg/kg/injection, schedule: Q01DX009 (ip), vehicle: saline with Tween-80
  survivor count: 0 of 6
dose: 50.0 mg/kg/injection, schedule: Q01DX009 (ip), vehicle: saline with Tween-80
  survivor count: 0 of 6
dose: 100.0 mg/kg/injection, schedule: Q01DX009 (ip), vehicle: saline with Tween-80
  survivor count: 0 of 6
dose: 200.0 mg/kg/injection, schedule: Q01DX009 (ip), vehicle: saline with Tween-80
  survivor count: 0 of 6
[4]
  survivor count: 0 of 6

## CSc1ncc2cnccn12
dose: 200.0 mg/kg/injection, schedule: Q01DX009 (ip), vehicle: water
  survivor count: 0 of 6
dose: 200.0 mg/kg/injection, schedule: Q04DX003 (ip), vehicle: saline
  survivor count: 0 of 6
dose: 200.0 mg/kg/injection, schedule: Q04DX003 (ip), vehicle: water
  survivor count: 1 of 6
dose: 400.0 mg/kg/injection, schedule: Q04DX003 (ip), vehicle: water
  survivor count: 0 of 6

## CCOC(=O)C(NC(C)=O)(C(=O)OCC)C(C)C(=O)c1ccc(OC)c(OC)c1OCc1ccccc1 (centres undefined)
dose: 12.5 mg/kg/injection, schedule: Q01DX009 (ip), vehicle: saline
  survivor count: 6 of 6
dose: 25.0 mg/kg/injection, schedule: Q01DX009 (ip), vehicle: saline
  survivor count: 6 of 6
dose: 50.0 mg/kg/injection, schedule: Q01DX009 (ip), vehicle: saline
  survivor count: 6 of 6
dose: 100.0 mg/kg/injection, schedule: Q01DX009 (ip), vehicle: saline
  survivor count: 4 of 6
dose: 200.0 mg/kg/injection, schedule: Q01DX009 (ip), vehicle: saline
  survivor count: 6 of 6

## C1CSC(=[N+]2CC[N+](=C3SCCS3)CC2)S1
dose: 100.0 mg/kg/injection, schedule: Q04DX002 (ip), vehicle: saline
  survivor count: 0 of 3
dose: 200.0 mg/kg/injection, schedule: Q04DX002 (ip), vehicle: saline
  survivor count: 0 of 3
dose: 400.0 mg/kg/injection, schedule: Q04DX002 (ip), vehicle: saline
  survivor count: 0 of 3

## COc1ccc(Nc2ccccc2C(=O)NN)cc1
[1]
  survivor count: 3 of 6
dose: 400.0 mg/kg/injection, schedule: Q04DX003 (ip), vehicle: Klucel (hydroxypropylcellulose) (HPC)
  survivor count: 0 of 6

## CCOC(=O)c1ccc(NC(=S)NC(=O)C(C)Oc2ccccc2)cc1 (centres undefined)
[6]
  survivor count: 6 of 6

## O=C(O)C(O)C(Br)C(=O)O (centres undefined)
[5]
  survivor count: 2 of 6
dose: 200.0 mg/kg/injection, schedule: Q01DX001 (ip), vehicle: saline
  survivor count: 0 of 6
[7]
  survivor count: 0 of 6

## Cc1cc(C)c2c(c1)CC2N (centres undefined)
dose: 200.0 mg/kg/injection, schedule: Q04DX002 (ip), vehicle: Klucel (hydroxypropylcellulose) (HPC)
  survivor count: 0 of 3
dose: 400.0 mg/kg/injection, schedule: Q04DX002 (ip), vehicle: Klucel (hydroxypropylcellulose) (HPC)
  survivor count: 0 of 3

## O=C1C=CCCCC1
dose: 200.0 mg/kg/injection, schedule: Q04DX003 (ip), vehicle: saline with Tween-80
  survivor count: 3 of 6
[6]
  survivor count: 0 of 6

## Oc1ccc(O)c(-c2cc3c(O)ccc(O)c3[nH]2)c1
dose: 50.0 mg/kg/injection, schedule: Q04DX002 (ip), vehicle: Klucel (hydroxypropylcellulose) (HPC)
  survivor count: 3 of 3
dose: 100.0 mg/kg/injection, schedule: Q04DX002 (ip), vehicle: Klucel (hydroxypropylcellulose) (HPC)
  survivor count: 3 of 3

## CN(N=Nc1ccc(C(N)=O)cc1)C1CCCCC1
[3]
  survivor count: 0 of 4

## CC(=O)c1ccccc1C
[7]
  survivor count: 0 of 6
